T1: FLAG, HA-SnoN (UniProt P12757)
T1 sequence: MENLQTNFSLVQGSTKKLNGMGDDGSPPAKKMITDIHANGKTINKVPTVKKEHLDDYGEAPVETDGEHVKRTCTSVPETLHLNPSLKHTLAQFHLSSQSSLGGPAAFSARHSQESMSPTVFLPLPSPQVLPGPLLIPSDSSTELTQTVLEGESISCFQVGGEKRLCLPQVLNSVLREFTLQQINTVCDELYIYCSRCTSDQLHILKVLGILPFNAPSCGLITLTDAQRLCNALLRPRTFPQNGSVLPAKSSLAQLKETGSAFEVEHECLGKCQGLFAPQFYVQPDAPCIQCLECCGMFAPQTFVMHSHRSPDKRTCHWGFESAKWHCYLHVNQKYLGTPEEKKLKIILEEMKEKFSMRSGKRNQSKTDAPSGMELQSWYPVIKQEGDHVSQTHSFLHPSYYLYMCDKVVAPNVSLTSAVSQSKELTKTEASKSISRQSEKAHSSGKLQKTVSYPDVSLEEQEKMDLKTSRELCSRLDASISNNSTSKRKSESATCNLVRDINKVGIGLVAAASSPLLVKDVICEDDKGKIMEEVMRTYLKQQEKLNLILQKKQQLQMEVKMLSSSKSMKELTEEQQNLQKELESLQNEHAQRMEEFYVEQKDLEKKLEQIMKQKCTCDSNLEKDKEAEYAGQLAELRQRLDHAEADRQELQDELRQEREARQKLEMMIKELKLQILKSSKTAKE

By UniProt entry, the sequences of proteins in these tests, tags left out.
UniProt P98175: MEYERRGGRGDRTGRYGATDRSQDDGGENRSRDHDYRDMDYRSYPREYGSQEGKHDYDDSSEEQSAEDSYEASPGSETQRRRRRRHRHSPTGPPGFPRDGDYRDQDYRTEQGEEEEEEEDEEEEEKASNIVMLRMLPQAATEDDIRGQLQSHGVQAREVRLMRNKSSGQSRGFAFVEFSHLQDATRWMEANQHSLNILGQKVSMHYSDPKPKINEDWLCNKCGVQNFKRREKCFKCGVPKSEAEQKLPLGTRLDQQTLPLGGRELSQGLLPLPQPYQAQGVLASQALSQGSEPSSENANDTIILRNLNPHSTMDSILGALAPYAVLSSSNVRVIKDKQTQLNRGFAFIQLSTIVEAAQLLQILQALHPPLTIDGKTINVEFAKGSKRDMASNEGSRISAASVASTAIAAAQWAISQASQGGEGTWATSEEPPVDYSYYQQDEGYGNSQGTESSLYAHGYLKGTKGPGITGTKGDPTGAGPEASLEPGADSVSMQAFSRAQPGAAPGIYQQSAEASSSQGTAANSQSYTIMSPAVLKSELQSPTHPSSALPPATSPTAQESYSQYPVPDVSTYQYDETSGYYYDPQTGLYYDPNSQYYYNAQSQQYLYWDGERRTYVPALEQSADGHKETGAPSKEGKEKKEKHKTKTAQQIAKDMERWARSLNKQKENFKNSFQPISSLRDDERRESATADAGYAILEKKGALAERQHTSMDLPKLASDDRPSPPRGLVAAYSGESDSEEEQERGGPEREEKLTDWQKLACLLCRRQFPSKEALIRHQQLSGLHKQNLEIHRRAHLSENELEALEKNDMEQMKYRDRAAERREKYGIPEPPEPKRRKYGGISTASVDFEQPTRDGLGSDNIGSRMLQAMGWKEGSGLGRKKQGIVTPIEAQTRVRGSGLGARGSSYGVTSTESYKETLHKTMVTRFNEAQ
UniProt O14744: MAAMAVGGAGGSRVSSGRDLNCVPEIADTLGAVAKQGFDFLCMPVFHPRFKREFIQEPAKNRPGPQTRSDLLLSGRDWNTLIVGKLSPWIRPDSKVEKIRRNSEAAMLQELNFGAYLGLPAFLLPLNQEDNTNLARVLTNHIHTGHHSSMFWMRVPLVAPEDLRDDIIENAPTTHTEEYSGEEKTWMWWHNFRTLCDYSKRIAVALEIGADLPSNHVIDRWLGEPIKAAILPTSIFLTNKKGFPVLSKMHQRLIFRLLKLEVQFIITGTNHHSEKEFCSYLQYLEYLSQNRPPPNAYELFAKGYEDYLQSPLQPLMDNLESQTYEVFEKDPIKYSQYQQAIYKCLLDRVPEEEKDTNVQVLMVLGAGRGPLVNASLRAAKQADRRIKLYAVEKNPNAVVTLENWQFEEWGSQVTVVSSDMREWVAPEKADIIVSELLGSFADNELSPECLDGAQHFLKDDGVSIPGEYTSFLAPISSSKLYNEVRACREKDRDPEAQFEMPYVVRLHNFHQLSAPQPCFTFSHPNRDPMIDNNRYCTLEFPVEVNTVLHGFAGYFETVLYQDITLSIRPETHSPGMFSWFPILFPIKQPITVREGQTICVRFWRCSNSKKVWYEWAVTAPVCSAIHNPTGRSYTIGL
UniProt Q13485: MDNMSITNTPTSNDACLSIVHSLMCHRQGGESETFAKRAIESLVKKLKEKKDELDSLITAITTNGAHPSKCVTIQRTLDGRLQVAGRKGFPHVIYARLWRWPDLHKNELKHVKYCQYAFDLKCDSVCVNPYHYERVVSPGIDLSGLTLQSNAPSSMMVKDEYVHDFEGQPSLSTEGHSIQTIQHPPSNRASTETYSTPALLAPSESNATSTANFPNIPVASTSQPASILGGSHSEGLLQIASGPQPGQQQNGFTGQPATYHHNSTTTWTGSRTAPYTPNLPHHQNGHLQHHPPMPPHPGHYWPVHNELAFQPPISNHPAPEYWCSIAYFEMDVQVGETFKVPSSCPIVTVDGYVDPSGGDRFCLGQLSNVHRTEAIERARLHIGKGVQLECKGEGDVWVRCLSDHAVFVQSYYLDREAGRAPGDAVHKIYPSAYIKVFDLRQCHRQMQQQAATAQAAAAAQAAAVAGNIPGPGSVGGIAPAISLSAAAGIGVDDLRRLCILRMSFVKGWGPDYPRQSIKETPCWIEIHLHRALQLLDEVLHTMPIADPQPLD
UniProt Q15208: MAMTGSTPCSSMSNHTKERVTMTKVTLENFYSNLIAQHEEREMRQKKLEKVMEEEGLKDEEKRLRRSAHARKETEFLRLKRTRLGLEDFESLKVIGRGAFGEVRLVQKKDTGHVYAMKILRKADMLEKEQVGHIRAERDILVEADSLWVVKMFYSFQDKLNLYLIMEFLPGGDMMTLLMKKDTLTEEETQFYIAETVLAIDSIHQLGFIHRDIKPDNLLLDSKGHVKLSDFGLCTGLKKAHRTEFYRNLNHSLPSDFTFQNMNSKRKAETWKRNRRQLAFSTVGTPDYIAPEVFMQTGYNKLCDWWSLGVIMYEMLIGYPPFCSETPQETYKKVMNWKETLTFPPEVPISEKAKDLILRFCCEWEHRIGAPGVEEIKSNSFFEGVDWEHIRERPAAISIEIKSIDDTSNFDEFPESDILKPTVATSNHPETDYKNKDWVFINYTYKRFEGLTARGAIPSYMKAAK

B1: Ski (protein, UniProt P12755 1-728)
chain: MEAAAGGRGCFQPHPGLQKTLEQFHLSSMSSLGGPAAFSARWAQEAYKKESAKEAGAAAVPAPVPAATEPPPVLHLPAIQPPPPVLPGPFFMPSDRSTERCETVLEGETISCFVVGGEKRLCLPQILNSVLRDFSLQQINAVCDELHIYCSRCTADQLEILKVMGILPFSAPSCGLITKTDAERLCNALLYGGAYPPPCKKELAASLALGLELSERSVRVYHECFGKCKGLLVPELYSSPSAACIQCLDCRLMYPPHKFVVHSHKALENRTCHWGFDSANWRAYILLSQDYTGKEEQARLGRCLDDVKEKFDYGNKYKRRVPRVSSEPPASIRPKTDDTSSQSPAPSEKDKPSSWLRTLAGSSNKSLGCVHPRQRLSAFRPWSPAVSASEKELSPHLPALIRDSFYSYKSFETAVAPNVALAPPAQQKVVSSPPCAAAVSRAPEPLATCTQPRKRKLTVDTPGAPETLAPVAAPEEDKDSEAEVEVESREEFTSSLSSLSSPSFTSSSSAKDLGSPGARALPSAVPDAAAPADAPSGLEAELEHLRQALEGGLDTKEAKEKFLHEVVKMRVKQEEKLSAALQAKRSLHQELEFLRVAKKEKLREATEAKRNLRKEIERLRAENEKKMKEANESRLRLKRELEQARQARVCDKGCEAGRLRAKYSAQIEDLQVKLQHAEADREQLRADLLREREAREHLEKVVKELQEQLWPRARPEAAGSEGAAELEP

These are yes or no findings as the source states them, for the method shown. Binding seen in cells or lysates may run through a third protein. These calls come from enrichment with a bait or labelling near it, and not all partners need be listed. Tags and fused reporters may be left off the sequences shown.

The first test has as its target T1, FLAG, HA-SnoN. Put plainly: affinity purification with mass spectrometry; tandem affinity purification from lysates of HaCaT cells stably expressing FLAG, HA-SnoN or control vector: anti-FLAG M2 gel, elution with TEV enzyme, anti-HA matrix, SDS-PAGE, LC-MS/MS of gel slices; TNE-based buffer with 0.5% Triton X-100.
In the case of RBM10 (from UniProt P98175 1-930), the binding entry is on record as “binds”.

In the case of “Skb1Hs/PRMT5 (from UniProt O14744 1-637)”, the binding entry is listed as “binds”.

Regarding Smad4 (from UniProt Q13485 1-552), the binding result is recorded as “binds”.

As for “endogenous NDR1 (nuclear Dbf2-related 1) (from UniProt Q15208 1-465)”, the binding result was “binds”.

Regarding α-tubulin (human (endogenous in HaCaT)), the binding result was “binds”.

A further test deals with T1, FLAG, HA-SnoN. The test is described as above. The source holds these as a separate data set.
B1: the binding entry is given as “binds”.

(Values after paper PMC3694053.)
